The supplement of paper PMC10382679
Single values of this set are uncertain.

B1: Rpb7; numbered along this chain (parent)
chain: MFFIKDLSLNITLHPSFFGPRMKQYLKTKLLEEVEGSCTGKFGYILCVLDYDNIDIQRGRILPTDGSAEFNVKYRAVVFKPFKGEVVDGTVVSCSQHGFEVQVGPMKVFVTKHLMPQDLTFNAGSNPPSYQSSEDVITIKSRIRVKIEGCISQVSSIHAIGSIKEDYLGAI

Experiments:
[1] = variants of: B1; experiment: log2 fold change of mutant abundance, UV-irradiated vs unirradiated; higher = more UV resistant (enriched after UV); conditions: with Saccharomyces cerevisiae rad7Δ rad26Δ; UV dose (J/m2): 10; genetic background: rad7Δ rad26Δ rpb7Δ + plasmid RPB7 library; outgrowth: 10 cell divisions
Method: (§1)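 Error-prone PCR random mutant library of yeast RPB7 (codons 2-171) on a LEU2 plasmid, shuffled into rad7Δ rad26Δ S. cerevisiae (BJ5465 background) with genomic RPB7 deleted. Cells were irradiated with 10 J/m2 UV (254 nm) or left unirradiated and grown for 10 divisions. Plasmid RPB7 amplicons were Illumina-sequenced and per-codon amino-acid counts were compared UV vs no UV with NOISeq (3 repeats, ARSyNseq batch correction). Positive log2FC means enrichment after UV, i.e. UV resistance / derepressed TCR.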

[2] = variants of: B1; experiment: NOISeq theta enrichment statistic, UV-irradiated vs unirradiated (dimensionless); higher = more UV resistant (enriched after UV); conditions: with Saccharomyces cerevisiae rad7Δ rad26Δ; UV dose (J/m2): 10; genetic background: rad7Δ rad26Δ rpb7Δ + plasmid RPB7 library; outgrowth: 10 cell divisions
Method: as §1

| Variant | log2 fold change of mutant abundance [1] | NOISeq theta enrichment statistic [2] |
| --- | --- | --- |
| S95C | -0.029 | -0.0959 |
| S95W | 0.215 | 0.202 |
| L7P | 0.0254 | 0.03 |
| Y51K | -0.223 | -0.124 |
| Y51F | 0.0285 | 0.148 |
| P127K | 0.238 | 0.189 |
| P127L | -0.104 | -0.22 |
| P127Q | -0.0222 | -0.074 |
| P127E | 0.346 | 0.26 |
| N122G | -0.448 | -0.208 |
| N122S | -0.253 | -0.786 |
| N122T | 0.0449 | 0.0619 |
| F109G | -0.196 | -0.192 |
| D118V | -0.102 | -0.274 |
| D118K | 0.221 | 0.199 |
| D118I | 0.0268 | 0.0162 |
| K83R | -0.155 | -0.581 |
| K83N | 0.146 | 0.785 |
| K83T | 0.0748 | 0.18 |
| L62T | -1.02 | -0.469 |
| Q96L | -0.03 | -0.0953 |
| Q96H | 0.0616 | 0.326 |
| G149A | 1 | 1.47 |
| C38H | 2.51 | 0.834 |

| Variant | log2 fold change of mutant abundance [1] | NOISeq theta enrichment statistic [2] |
| --- | --- | --- |
| C38R | 0.195 | 0.574 |
| L9F | 0.13 | 0.304 |
| L9S | 0.557 | 0.425 |
| L9M | -0.0513 | -0.0198 |
| V154R | -0.216 | -0.143 |
| V154G | -0.751 | -0.95 |
| V154M | -0.0295 | -0.0744 |
| G89E | -0.224 | -0.327 |
| H97G | -0.0319 | -0.0365 |
| H97C | 0.0168 | 0.0177 |
| H97P | 0.0277 | 0.112 |
| S152H | -0.822 | -0.395 |
| T39L | -0.345 | -0.279 |
| T39R | 0.179 | 0.355 |
| T39I | 0.545 | 0.426 |
| T39P | -0.1 | -0.138 |
| L119I | -0.0101 | -0.0469 |
| L119F | -0.123 | -0.76 |
| V108E | 0.144 | 0.356 |
| K140Y | -0.283 | -0.164 |
| K140E | 0.227 | 0.809 |
| K140T | -0.193 | -0.345 |
| K140I | 0.18 | 0.337 |
| V101S | -1.89e-05 | -2.5e-05 |

| Variant | log2 fold change of mutant abundance [1] | NOISeq theta enrichment statistic [2] |
| --- | --- | --- |
| V101M | -0.0453 | -0.24 |
| G169D | 0.126 | 0.346 |
| V87E | 0.0714 | 0.166 |
| V87A | -0.0257 | -0.0749 |
| V87W | 0.0841 | 0.115 |
| K146L | 0.572 | 0.34 |
| M106Q | 0.0927 | 0.0879 |
| G59E | -0.5 | -0.933 |
| S93H | -0.0521 | -0.0588 |
| S93K | -0.173 | -0.221 |
| S93T | -0.0473 | -0.276 |
| K80Y | -0.243 | -0.233 |
| K80M | -0.528 | -0.43 |
| H113A | 0.101 | 0.12 |
| H113G | 0.749 | 0.474 |
| H113P | 0.0912 | 0.309 |
| S8C | -0.362 | -0.236 |
| S8T | -0.035 | -0.136 |
| E33K | -0.0267 | -0.0591 |
| D166R | 0.112 | 0.0636 |
| T90H | 0.0366 | 0.0338 |
| T90A | -0.0886 | -0.324 |
| T90Q | -0.0579 | -0.117 |
| S141V | -0.793 | -0.416 |

No new results follow: entries from further up.

| Variant | log2 fold change of mutant abundance [1] | NOISeq theta enrichment statistic [2] |
| --- | --- | --- |
| K140Y | -0.283 | -0.164 |
| K140E | 0.227 | 0.809 |
| K140T | -0.193 | -0.345 |
| K140I | 0.18 | 0.337 |
| V101S | -1.89e-05 | -2.5e-05 |
| V101M | -0.0453 | -0.24 |
| G169D | 0.126 | 0.346 |
| V87E | 0.0714 | 0.166 |
| V87A | -0.0257 | -0.0749 |
| V87W | 0.0841 | 0.115 |
| K146L | 0.572 | 0.34 |
| M106Q | 0.0927 | 0.0879 |
| G59E | -0.5 | -0.933 |
| S93H | -0.0521 | -0.0588 |
| S93K | -0.173 | -0.221 |
| S93T | -0.0473 | -0.276 |
| K80Y | -0.243 | -0.233 |
| K80M | -0.528 | -0.43 |
| H113A | 0.101 | 0.12 |
| H113G | 0.749 | 0.474 |
| H113P | 0.0912 | 0.309 |
| S8C | -0.362 | -0.236 |
| S8T | -0.035 | -0.136 |
| E33K | -0.0267 | -0.0591 |
| D166R | 0.112 | 0.0636 |
| T90H | 0.0366 | 0.0338 |
| T90A | -0.0886 | -0.324 |
| T90Q | -0.0579 | -0.117 |

(further entries)

| Variant | log2 fold change of mutant abundance [1] | NOISeq theta enrichment statistic [2] |
| --- | --- | --- |
| S141I | 0.163 | 0.193 |
| I139S | 1.1 | 0.52 |
| K107H | -0.0532 | -0.032 |
| K107L | 0.15 | 0.163 |
| K107V | 0.269 | 0.277 |
| I171M | -0.0922 | -0.143 |
| I171S | 0.159 | 0.194 |
| L31Y | 0.112 | 0.0569 |
| G36V | -0.000602 | -0.00127 |
| A68V | 0.0503 | 0.189 |
| Q131H | 0.0359 | 0.163 |
| I45T | 0.0564 | 0.133 |
| I45L | -0.0164 | -0.0243 |
| I45M | 0.232 | 0.292 |
| I45S | -0.0723 | -0.0762 |
| Y130K | -0.222 | -0.171 |
| Y130D | 0.105 | 0.164 |
| Y130T | -0.357 | -0.228 |
| L114I | 0.369 | 0.298 |
| L114K | -0.142 | -0.113 |
| R60W | -0.377 | -0.267 |
| A170P | -0.143 | -0.174 |
| A170N | 0.971 | 0.493 |
| I160T | 0.184 | 0.35 |

| Variant | log2 fold change of mutant abundance [1] | NOISeq theta enrichment statistic [2] |
| --- | --- | --- |
| N126V | -0.419 | -0.213 |
| N126C | -0.574 | -0.302 |
| R75W | -0.289 | -0.216 |
| G161R | 0.163 | 0.152 |
| C150S | -0.0983 | -0.355 |
| C150V | -0.511 | -0.388 |
| T138P | -0.341 | -0.439 |
| D88K | 0.0281 | 0.0443 |
| D88L | -0.288 | -0.243 |
| P63Q | -0.0446 | -0.0295 |
| P63Y | -0.48 | -0.341 |
| P63A | -0.0028 | -0.00445 |
| D50N | 0.15 | 0.339 |
| E148Q | -0.565 | -0.475 |
| E148G | -0.0856 | -0.188 |
| E148Y | -0.965 | -0.551 |
| L168V | -0.165 | -0.311 |
| L168Y | -1.04 | -0.614 |
| S37V | -0.0673 | -0.0329 |
| S37W | -0.0231 | -0.0308 |
